B1: tRNA (parent)
chain: GUUCCGUUGGCGUAAUGGUAACGCGUCUCCCUCCUAAGGAGAAGACUGCGGGUUCGAGUCCCGUACGGAACG

Variants at the background level are over-represented here.

Drawing on the RNAGym collection of RNA variant scans (doi:10.1126/science.aae0568), this text covers yeast fitness for 83 variants.

The variants in this data set derive from B1. The data set is described as follows: yeast fitness relative to wild type (ratio to wild type); higher = fitter; tRNA-Arg(CCU), competitive growth, 37 C, YPD. Summed up: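 Start and end populations of a pooled competition were compared by 100-nucleotide paired-end sequencing of gene amplicons. The Saccharomyces cerevisiae strains carried tRNA-Arg(CCU) gene variants at the native genomic locus, synthesised with a 3% per-site mutation rate at 69 sites, and competed in YPD at 37°C for 24 hours in six parallel replicates. Darwinian fitness relative to wild type was based on the change in genotype frequencies. Genotypes required ≥ 100 starting reads, and estimates < 0.5 were set to 0.5.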
For the variant U13C A57U C61U, the yeast fitness was no more than 0.5.

With C11U C34U G38C C55A, the yeast fitness is no more than 0.5.

For G6C U7C G48A, the yeast fitness worked out at 0.614. Turning to G23A U26A C30U A40U G44A C62U, the yeast fitness is no more than 0.5. In the case of A40U C61G G68C A70G it was no more than 0.5. With G10C A14U U19A C22U G51C, the yeast fitness was no more than 0.5. For the variant U3A A43U, the yeast fitness was determined as 0.929.

For G18C A43C C55U, the yeast fitness is no more than 0.5. Take U35A G39A U53A: the yeast fitness was no more than 0.5. For G18A G44C C66A, the yeast fitness is no more than 0.5. Consider A21U A37G C62U, for which the yeast fitness is no more than 0.5.

For U13C C29A C60G, the yeast fitness was no more than 0.5. The same measure for A14G G23A A36G C66U: no more than 0.5. The same measure for C4G U16C G41C C62U: no more than 0.5. Regarding C5A C31G A42C G56A C61G, the yeast fitness is no more than 0.5. In the case of U7A A21G C30G A36G C46G it was no more than 0.5. For U35A C49G C66G, the yeast fitness is no more than 0.5.

On to A15U A43U C55A, for which the yeast fitness is no more than 0.5. For U3A C33U G50A, the yeast fitness was no more than 0.5. Regarding C5G G12A U32C A40C G51A, the yeast fitness was no more than 0.5. Regarding U2A G18A C24U, the yeast fitness is no more than 0.5. With C24A C66A A69C, the yeast fitness is no more than 0.5. For C4G G9A C29U A37C, the yeast fitness is no more than 0.5. In the case of C27G C30U U32C U59C, the yeast fitness was no more than 0.5.

As for C29A U32C A42U C49U C66U, the yeast fitness is no more than 0.5.

Turning to C11A U54G G68A, the yeast fitness was no more than 0.5. Consider C22A C34A A70G, for which the yeast fitness was no more than 0.5. As to U2A C24U U47C C60U U64C, the yeast fitness was no more than 0.5.

As to G6A G18C C30G C34A A37C, the yeast fitness was no more than 0.5. For C4A C29G C34G C60G, the yeast fitness is no more than 0.5. As to U8C A14U C22G C30U, the yeast fitness turned out to be 0.581. On to C5A U35C A36U, for which the yeast fitness worked out at 0.57. As to G6A U32G C49G C55A, the yeast fitness is no more than 0.5. With C29U U32C A40U G41A, the yeast fitness is no more than 0.5. For the variant A42C U47A C49A G51U, the yeast fitness was no more than 0.5. Take G6C U7C G9C G38C G41A C55U G67C: the yeast fitness is no more than 0.5. Consider A21G C24A G39A C66U, for which the yeast fitness was no more than 0.5. On to C4U A20U U35A, for which the yeast fitness is no more than 0.5.

Consider C27U U32G G44A A57G, for which the yeast fitness was no more than 0.5. In the case of C5A C30U U35A A42G it was no more than 0.5; in that of C22G A45U G48C C55U A57C G67U, no more than 0.5.

A21G G48C: the yeast fitness worked out at 1.01. On to C27U U47G G50A, for which the yeast fitness was no more than 0.5. For C27G A40C C55G, the yeast fitness was no more than 0.5. Consider A15C U16A A21G U26A C30U C61A C66U, for which the yeast fitness is no more than 0.5.

For the variant C33U G39C A45C, the yeast fitness was no more than 0.5. In the case of C30G U47G C49U A65G, the yeast fitness was no more than 0.5. Turning to C33U A43U C49G G50C A65C, the yeast fitness is no more than 0.5.

Take C29U U35G A37C G38C C49G: the yeast fitness was no more than 0.5. The same measure for C5G A45C A57U: no more than 0.5; for U13A G38U G67C: no more than 0.5. Consider C11U C22U C24U U53A, for which the yeast fitness is no more than 0.5.

Consider A36C A37C G68U, for which the yeast fitness was no more than 0.5.

Consider C24U U32A U35C C55U G68C, for which the yeast fitness was no more than 0.5. For C27G A45C C55U, the yeast fitness was no more than 0.5.

For A14C A42U C55U, the yeast fitness is no more than 0.5.

Consider C31A A45C G63C, for which the yeast fitness was no more than 0.5. On to C4A G10A C31A A65C, for which the yeast fitness was no more than 0.5.

Regarding A45U C55G, the yeast fitness is 0.528. In the case of U7A G17C C24G C29A A69C, the yeast fitness was no more than 0.5.

Take U3C G10C C46U C66U: the yeast fitness was no more than 0.5.

Consider G10C G25C U26C A57G, for which the yeast fitness is no more than 0.5.

For the variant C11A G12C U26C G67A, the yeast fitness was no more than 0.5.

Regarding U26C G52C G67C, the yeast fitness is no more than 0.5. Turning to A14C C27G U32C C46G A65G, the yeast fitness is no more than 0.5. With U3G G25A C27A G50C, the yeast fitness is no more than 0.5. On to G12A U28A C31A C33U A37C G50A A65U, for which the yeast fitness is no more than 0.5. For A20U A21G C27G C60G A69G, the yeast fitness is no more than 0.5. The same measure for A20G C22G A45C C46G A57U A65G: no more than 0.5; for C4G G17C C33G U47A G68C: no more than 0.5. The same measure for C4A C55G C62A: no more than 0.5. Turning to A20C G38A G41A, the yeast fitness is no more than 0.5. On to U8G U26G A42U, for which the yeast fitness is no more than 0.5. In the case of C11U G56A C61G it was no more than 0.5; in that of C27U C29U G51U, no more than 0.5; in that of C24G C30A C34U G39A G44A G58C A65C, no more than 0.5. In the case of A42C A45C G68C it was no more than 0.5; in that of U3A C24G C61U, no more than 0.5; in that of C11U C34G G39C, no more than 0.5. Consider U2C U19G A69C, for which the yeast fitness was 0.543.

With A14G A69U A70C, the yeast fitness was 0.726.

Consider U16A C55A A65U, for which the yeast fitness is no more than 0.5. The same measure for A14G A21C: 0.866.
